Key:
[1] = for relative CH3CN pressure of discrete loss (reverse jump) during desorption: decreasing CH3CN vapor pressure in nitrogen; for relative CH3CN pressure of discrete loss (reverse jump) during desorption / relative CH3CN pressure of discrete sorption jump indicating solvate formation: 20 and 40° C.; for relative CH3CN pressure of discrete sorption jump indicating solvate formation: increasing CH3CN vapor pressure in nitrogen; for ratio CH3CN/montelukast sodium by extrapolation of the solvate sorption data segments to 0%: molar ratio, extrapolated to 0% relative pressure

Compound | relative CH3CN pressure of discrete loss (reverse jump) during desorption [1] | relative CH3CN pressure of discrete sorption jump indicating solvate formation [1] | relative thermodynamic stability of the polymorphs from melting traces (dry samples, DSC 5° C./min, melting enthalpy and onset compared) | ratio CH3CN/montelukast sodium by extrapolation of the solvate sorption data segments to 0% [1] | relative stability of the solvate forms from melting traces (solvates formed in situ with excess acetonitrile in sealed pan, DSC)
CC(C)(O)c1ccccc1CC[C@@H](SCC1(CC(=O)[O-])CC1)c1cccc(/C=C/c2ccc3ccc(Cl)cc3n2)c1.[Na+] [Form A, montelukast sodium] | approximately 20% | 50-60% | more thermodynamically stable than Form B | – | –
CC(C)(O)c1ccccc1CC[C@@H](SCC1(CC(=O)[O-])CC1)c1cccc(/C=C/c2ccc3ccc(Cl)cc3n2)c1.[Na+] [Form B, montelukast sodium] | below 5% | no discrete jump during sorption | – | – | –
CC(C)(O)c1ccccc1CC[C@@H](SCC1(CC(=O)[O-])CC1)c1cccc(/C=C/c2ccc3ccc(Cl)cc3n2)c1.[Na+] [hemisolvate, montelukast sodium:acetonitrile hemisolvate] | – | – | – | 0.45 CH3CN/montelukast sodium | more stable than the monosolvate at all meaningful temperatures
CC(C)(O)c1ccccc1CC[C@@H](SCC1(CC(=O)[O-])CC1)c1cccc(/C=C/c2ccc3ccc(Cl)cc3n2)c1.[Na+] [monosolvate, montelukast sodium:acetonitrile monosolvate] | – | – | – | 1.1 CH3CN/montelukast sodium | –
